These are yes or no findings as the source states them, for the method shown. Binding seen in cells or lysates may run through a third protein. Binding calls can cover weak binding; strength is not graded here.
Molecular target: pUL21-GFP (wild-type) (HSV-1) (UniProt P10205)
Assay: co-IP

The chains behind the UniProt entries cited, without tags or fusion partners. Where a name states a change or a piece, a line headed by the entry shows the natural chain unless it says otherwise.
UniProt P10205, whole entry, stated change not applied: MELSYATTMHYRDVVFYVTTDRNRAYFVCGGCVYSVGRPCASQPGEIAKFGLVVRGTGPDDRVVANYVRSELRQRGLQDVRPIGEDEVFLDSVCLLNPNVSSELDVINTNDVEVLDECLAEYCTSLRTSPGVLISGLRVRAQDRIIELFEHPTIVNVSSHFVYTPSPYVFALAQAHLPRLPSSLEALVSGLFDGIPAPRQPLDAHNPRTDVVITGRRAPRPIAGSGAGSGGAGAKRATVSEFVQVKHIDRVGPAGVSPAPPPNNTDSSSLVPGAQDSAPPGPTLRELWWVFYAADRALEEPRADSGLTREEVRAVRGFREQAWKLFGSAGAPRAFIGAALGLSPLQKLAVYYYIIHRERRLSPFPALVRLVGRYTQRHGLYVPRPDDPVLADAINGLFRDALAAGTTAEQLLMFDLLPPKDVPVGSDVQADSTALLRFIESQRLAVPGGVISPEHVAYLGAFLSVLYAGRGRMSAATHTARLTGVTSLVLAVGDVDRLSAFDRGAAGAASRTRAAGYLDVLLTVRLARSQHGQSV

With “CERT (endogenous, HEK293T) (from UniProt Q9Y5P4)” as the substance, how does the binding read?
The binding was “binds”.

Reference: doi:10.1101/2022.06.01.494398
